Our source for the binding values is PMC6191444.

Amino acid sequences for entries named in this document (tags omitted).
UniProt Q8K4B0: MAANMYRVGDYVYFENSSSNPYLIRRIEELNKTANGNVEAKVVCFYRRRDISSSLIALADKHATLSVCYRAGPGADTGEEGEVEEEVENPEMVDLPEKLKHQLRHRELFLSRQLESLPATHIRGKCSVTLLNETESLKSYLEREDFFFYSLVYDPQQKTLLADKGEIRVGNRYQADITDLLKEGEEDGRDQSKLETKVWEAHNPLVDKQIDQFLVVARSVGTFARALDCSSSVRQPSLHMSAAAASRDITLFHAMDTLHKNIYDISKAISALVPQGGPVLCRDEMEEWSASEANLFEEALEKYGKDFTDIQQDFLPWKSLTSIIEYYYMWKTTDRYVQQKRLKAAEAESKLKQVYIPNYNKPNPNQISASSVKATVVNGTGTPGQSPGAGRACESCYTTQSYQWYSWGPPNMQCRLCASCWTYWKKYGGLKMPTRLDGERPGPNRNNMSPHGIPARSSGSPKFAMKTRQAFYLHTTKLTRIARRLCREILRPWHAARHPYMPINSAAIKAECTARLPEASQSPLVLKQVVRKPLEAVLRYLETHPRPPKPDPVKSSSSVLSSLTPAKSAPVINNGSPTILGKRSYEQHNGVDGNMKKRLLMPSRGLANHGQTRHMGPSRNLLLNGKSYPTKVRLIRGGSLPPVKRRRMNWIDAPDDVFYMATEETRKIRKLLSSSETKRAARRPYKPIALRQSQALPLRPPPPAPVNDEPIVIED
UniProt Q14839: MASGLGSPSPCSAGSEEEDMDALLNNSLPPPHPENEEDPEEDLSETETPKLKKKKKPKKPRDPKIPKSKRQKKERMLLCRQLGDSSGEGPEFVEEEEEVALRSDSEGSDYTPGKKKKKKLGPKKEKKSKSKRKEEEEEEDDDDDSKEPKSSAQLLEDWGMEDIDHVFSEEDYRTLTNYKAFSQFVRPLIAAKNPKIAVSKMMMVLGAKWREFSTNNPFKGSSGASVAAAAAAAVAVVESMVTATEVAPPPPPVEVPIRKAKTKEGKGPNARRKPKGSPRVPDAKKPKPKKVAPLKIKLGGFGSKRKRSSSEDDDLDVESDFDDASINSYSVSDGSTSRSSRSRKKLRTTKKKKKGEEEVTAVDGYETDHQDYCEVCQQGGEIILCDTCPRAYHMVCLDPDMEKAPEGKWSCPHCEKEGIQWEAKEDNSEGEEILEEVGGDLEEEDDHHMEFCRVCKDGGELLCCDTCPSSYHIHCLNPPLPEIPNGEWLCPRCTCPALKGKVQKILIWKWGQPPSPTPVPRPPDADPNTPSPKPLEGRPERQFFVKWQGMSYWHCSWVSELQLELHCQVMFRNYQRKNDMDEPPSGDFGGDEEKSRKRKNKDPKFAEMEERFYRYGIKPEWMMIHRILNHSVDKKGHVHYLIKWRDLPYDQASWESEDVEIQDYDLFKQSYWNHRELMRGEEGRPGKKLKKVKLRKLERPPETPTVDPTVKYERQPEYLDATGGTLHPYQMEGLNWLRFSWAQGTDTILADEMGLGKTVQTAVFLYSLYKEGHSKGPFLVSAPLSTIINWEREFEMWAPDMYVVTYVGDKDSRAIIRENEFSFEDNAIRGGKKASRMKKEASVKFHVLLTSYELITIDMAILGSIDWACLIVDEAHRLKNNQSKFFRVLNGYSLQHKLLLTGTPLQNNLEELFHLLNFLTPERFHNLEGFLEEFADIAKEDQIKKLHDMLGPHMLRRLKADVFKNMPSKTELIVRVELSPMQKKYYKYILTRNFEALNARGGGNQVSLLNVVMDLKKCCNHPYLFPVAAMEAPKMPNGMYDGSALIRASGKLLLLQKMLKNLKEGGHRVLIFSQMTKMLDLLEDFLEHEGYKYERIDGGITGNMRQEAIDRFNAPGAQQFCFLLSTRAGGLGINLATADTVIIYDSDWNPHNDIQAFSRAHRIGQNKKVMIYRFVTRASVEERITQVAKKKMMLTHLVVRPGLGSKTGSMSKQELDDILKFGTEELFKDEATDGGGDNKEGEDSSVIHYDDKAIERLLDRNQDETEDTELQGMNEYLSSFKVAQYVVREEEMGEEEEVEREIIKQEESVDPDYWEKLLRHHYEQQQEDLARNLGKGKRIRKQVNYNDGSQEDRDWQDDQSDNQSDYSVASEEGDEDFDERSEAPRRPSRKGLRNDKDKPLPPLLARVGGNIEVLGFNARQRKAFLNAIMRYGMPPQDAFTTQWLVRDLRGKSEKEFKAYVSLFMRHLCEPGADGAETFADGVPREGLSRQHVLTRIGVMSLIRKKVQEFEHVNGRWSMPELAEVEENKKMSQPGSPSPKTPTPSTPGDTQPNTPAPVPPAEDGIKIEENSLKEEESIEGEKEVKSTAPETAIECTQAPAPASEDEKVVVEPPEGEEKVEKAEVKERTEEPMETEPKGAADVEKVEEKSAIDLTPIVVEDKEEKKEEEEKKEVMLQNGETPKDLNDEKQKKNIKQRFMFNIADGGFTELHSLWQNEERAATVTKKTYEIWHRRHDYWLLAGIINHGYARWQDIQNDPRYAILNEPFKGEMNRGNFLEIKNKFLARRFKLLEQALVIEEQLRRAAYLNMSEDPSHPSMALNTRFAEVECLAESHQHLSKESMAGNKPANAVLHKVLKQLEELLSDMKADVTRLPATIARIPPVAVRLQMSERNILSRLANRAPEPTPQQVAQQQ
UniProt Q92769: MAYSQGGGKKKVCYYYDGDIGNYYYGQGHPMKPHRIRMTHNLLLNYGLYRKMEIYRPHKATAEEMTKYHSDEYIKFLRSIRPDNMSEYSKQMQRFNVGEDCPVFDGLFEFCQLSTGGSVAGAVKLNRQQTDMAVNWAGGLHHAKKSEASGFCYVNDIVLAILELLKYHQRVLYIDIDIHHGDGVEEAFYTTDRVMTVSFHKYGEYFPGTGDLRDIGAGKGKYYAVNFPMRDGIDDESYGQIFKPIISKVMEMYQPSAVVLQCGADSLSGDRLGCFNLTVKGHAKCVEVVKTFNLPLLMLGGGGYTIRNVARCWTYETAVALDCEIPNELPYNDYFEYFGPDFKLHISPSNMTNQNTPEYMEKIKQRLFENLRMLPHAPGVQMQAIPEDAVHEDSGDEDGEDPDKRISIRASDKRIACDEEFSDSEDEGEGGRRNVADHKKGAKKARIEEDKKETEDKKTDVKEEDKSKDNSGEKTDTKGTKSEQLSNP

The target of assay [1] is T1, GST–PWWP2A (human) (UniProt Q96N64).
T1 sequence: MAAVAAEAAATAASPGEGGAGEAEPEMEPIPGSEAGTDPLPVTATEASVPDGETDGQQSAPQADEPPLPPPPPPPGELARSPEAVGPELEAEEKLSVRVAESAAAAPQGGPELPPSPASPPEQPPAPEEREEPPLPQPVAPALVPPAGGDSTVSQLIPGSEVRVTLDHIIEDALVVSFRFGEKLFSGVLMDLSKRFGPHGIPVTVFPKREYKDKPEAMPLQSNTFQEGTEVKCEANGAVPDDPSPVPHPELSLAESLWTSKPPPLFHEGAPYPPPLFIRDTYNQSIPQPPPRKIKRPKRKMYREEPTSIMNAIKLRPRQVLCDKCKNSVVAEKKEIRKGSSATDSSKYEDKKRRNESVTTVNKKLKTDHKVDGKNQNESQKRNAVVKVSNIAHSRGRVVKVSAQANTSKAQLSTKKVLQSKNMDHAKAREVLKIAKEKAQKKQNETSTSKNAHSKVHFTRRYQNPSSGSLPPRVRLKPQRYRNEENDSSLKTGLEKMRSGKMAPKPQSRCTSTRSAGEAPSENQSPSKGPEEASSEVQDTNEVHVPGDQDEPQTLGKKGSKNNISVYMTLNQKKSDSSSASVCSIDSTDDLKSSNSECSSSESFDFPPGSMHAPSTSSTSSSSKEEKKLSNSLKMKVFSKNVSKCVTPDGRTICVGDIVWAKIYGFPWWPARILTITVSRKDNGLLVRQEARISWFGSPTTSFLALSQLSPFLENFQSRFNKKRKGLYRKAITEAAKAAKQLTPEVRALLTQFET
Put plainly: pull-down; GST proteins on glutathione beads incubated overnight at 4 °C with S1 mononucleosomes from 1 x 10^7 HK cells; washes with 150 or 300 mM NaCl; immunoblot; only the target purified.

Assay [2] addresses T2, FLAG-PWWP2A (human), Q96N64.
T2 chain: T1 sequence
The assay is described as follows: co-IP; as a8, but cells co-expressing HA-MTA2 in place of HA-MTA1. As to conditions: remark: other sources report otherwise.

The target of assay [3] is MTA1–FLAG (endogenously tagged, mESC) (mouse (endogenous in mESC)) (UniProt Q8K4B0). The assay is described as follows: co-IP; mESC nuclear extract (200 µg), antibody on Protein G-Sepharose overnight at 4 °C, washes with 150 and 300 mM NaCl, immunoblot. For orientation: Immunoblotting shows a protein as a band on a membrane.

These are yes or no findings as the source states them, for the method shown. In cells and extracts the contact can be indirect. Some results given as binding are weak or reduced against the parent protein; the word gives no strength. For some of these results: Tags and fused reporters may be left off the sequences shown.

In the case of “CHD4 (from UniProt Q14839 1-1912) (enzyme)”, the binding result in assay [1] is “no binding”.
Regarding “HDAC2 (from UniProt Q92769 1-488) (enzyme)”, in assay [1], the binding result is “binds”.

B1: HA-MTA2, Q9R190 1-668 (protein)
chain: MAANMYRVGDYVYFENSSSNPYLVRRIEELNKTANGNVEAKVVCLFRRRDISSSLNSLADSNAREFEEESKQPGVSEQQRHQLKHRELFLSRQFESLPATHIRGKCSVTLLNETDILNQYLDKEDCFFYSLVFDPVQKTLLADQGEIRVGCKFQAEIPDRLAEGESDNRNQQKMEMKVWDPDNPLTDRQIDQFLVVARAVGTFARALDCSSSIRQPSLHMSAAAASRDITLFHAMDTLQRNGYDLAKAMSTLVPQGGPVLCRDEMEEWSASEAMLFEEALEKYGKDFNDIRQDFLPWKSLASIVQFYYMWKTTDRYIQQKRLKAAEADSKLKQVYIPTYTKPNPNQIISVGSKPGMNGAGFQKGLTCESCHTTQSAQWYAWGPPNMQCRLCASCWIYWKKYGGLKTPTQLEGAARGTTEPHSRGHLSRPEAQSLSPYTTSANRAKLLAKNRQTFLLQTTKLTRLARRMCRDLLQPRRAARRPYAPINANAIKAECSIRLPKAAKTPLKIHPLVRLPLATIVKDLVAQAPLKPKTPRGTKTPINRNQLTQNRGLGGIMVKRSYETMAGAGVPFSANGRPLASGIRSSSQPAAKRQKLNPADAPNPVVFVATKDTRALRKALTHLEMRRAARRPNLPLKVKPTLMTVRPPVPLPASSHPASTNEPIVLED
With B1, the binding entry in assay [2] is reported as “no binding”.

B2: PWWP2A (endogenous, mESC) (protein, UniProt Q69Z61 1-730)
chain: MAAVAAEAAATAASPGEGGAGEAEPELEPIPGSEAGTPLPVTATEAAVPDGEADGRQSAPQADEQPLPPPPPPPPPGELADSSEAEEAKPPEPAAVPVSPPEQPPAAPEQPEDAPRPPPAPALVPPAGGDSAVSHLIPGSEVRVTLDHIIEDALVVSFRLGEKLFSGVLMDLSKRFGPHGIPVTVFPKREYKDKPDAMQLQSTTFQEGIEVKQEVNGAVPDDLSPVPPPERLWASKPPPLFHEGAPYPPPLFIRDTYNQSIPQPPPRKIKRPKRKMYREEPTSIMNAIKLRPRQVLCDKCKNSVVAEKKEIRKGSSDSSRYEDKKRRNDSVATVNKKLKTDHKVDGKNQNESQRRNTVVRVSSIAHSRGRVVKVSAQANTSKAQLNTKKVLQSKNMDHAKAREVLKIAKEKAQKKQSETSTSKTAHAKVHFTRRYQSPSSGSLPPRVRLKPQRYRNEENDSSLKTGLEKIRSGKLAPKPQSRCTSTRSAGEAPSEKPSPSEGPEESAGEVQDTSRVRVPGEQEELRMLGKKGSKSSISVYLTLNQETSDSSSASVCSIDSMDDLKSSNSECSSSESFVFPPGCMHAPSASSTSTSFSSKEENSLRNSLKMKIFSKNVSKCITPDGRTICVGDIVWAKIYGFPWWPARILTITVSRKDNGLLARQEARISWFASPTTSSLALSQLSPFLENFQLRFNKKRKGLYRRAITEAAKAAKQLTPEVRALLTQFET
Turning to B2, the binding result in assay [3] is recorded as “binds”.
